A short description of this assay: qHTS Assay for Lipid Storage Modulators in Drosophila S3 Cells.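 For cell number change: cells counted by Cell Tracker Red CMTPX staining in the red channel.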 The settings on record: BODIPY lipid droplet fluorescence, 18-24 h; for cell number change: measured here: cell count max response, cells fed with added oleic acid. An outline of the steps:
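Laser-scanning cytometry quantifies lipid droplet accumulation (500–530 nm total intensity; droplet/cell object ratio) in oleic acid-fed (400 uM added) Drosophila S3 cells treated with a concentration series. 20 uM Triacsin C defined 100% inhibition.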

[1] abbreviates: measured here: lipid fluorescence (Fed channel) AC50, cells fed with added oleic acid.
Where [2] appears, read: measured here: cell number channel AC50, cells fed with added oleic acid.

Here are results for 37 molecules from PubChem BioAssay AID2685 (National Center for Advancing Translational Sciences (NCATS), 2010).

SMILES strings stand for the structures. Some of the results follow. The main result of the screen is listed elsewhere. These columns were measured beside it and carry no call. Most of these compounds were active or inconclusive in the main read-out, so they are no random draw. Words in brackets tell the shape of the fitted curve; partial curves, single points and poor fits give uncertain potencies.

For the molecule `Cc1cc(=O)n2nc(N3CCCC3C(=O)Nc3ccc(C(C)C)cc3)sc2n1` (stereo not given), the cell number change is 12.1%. The AC50 under setting [1] was 0.164 µM [falling, full curve, poor fit].

Turning to `CCOc1ccccc1Nc1ccc(C(=O)O)cc1NC(C)=O`, the cell number change came to 18.8%. The AC50 under setting [1] was 16.4 µM [rising, partial curve].

On to `COc1cc(CC(=O)OCc2cccc([N+](=O)[O-])c2)cc(OC)c1OC`, for which the cell number change was 20.6%.

As for `O=C(CSC1=N/C(=C/c2ccco2)C(=O)N1c1ccc(OC(F)F)cc1)NC1CCS(=O)(=O)C1` (stereo not given), the cell number change was found to be 78%. In addition, under setting [2], the AC50 is 7.31 µM [rising, partial curve].

Consider `Cc1cc(Oc2ccc(=O)n(C)n2)nc(SCc2ccccc2)n1`, for which the cell number change was 57.9%. Besides, the AC50 under setting [2] is 23.1 µM [rising, single point]. Also, the AC50 under setting [1] was 0.00517 µM [falling, full curve, poor fit].

On to `O=C(CN1CCCCC1)Nc1nc(-c2ccc(F)c(F)c2)cs1`, for which the cell number change was 21.8%. Besides, the AC50 under setting [1] is 9.2 µM [rising, partial curve].

As for `Cc1ccccc1-c1noc(-c2ccccc2F)n1`, the AC50 under setting [2] was 1.46 µM [rising, partial curve] and the AC50 under setting [1] was 1.46 µM [rising, partial curve].

In the case of `CC(=O)NC(CC(=O)Nc1nc(-c2ccc(N(C)S(C)(=O)=O)cc2)cs1)c1ccccc1` (stereo not given), the cell number change is -2.94%. Further, the AC50 under setting [1] was 6.51 µM [falling, single point].

With `Nc1cc(N)nc(SCC(=O)Nc2ccccc2N2CCOCC2)n1`, the cell number change amounted to 17.2%. Besides, the AC50 under setting [1] was 8.2 µM [rising, partial curve].

On to `Cc1ccc(S(=O)(=O)N2CCOCC2)cc1NC(=O)COC(=O)c1ccccc1OCc1c(C)noc1C`, for which the cell number change is -83.3%. For the same molecule, under setting [2], the AC50 is 29.1 µM [falling, partial curve, poor fit].

With `CCCCOCCCNC(=O)c1ccc(OCC)cc1`, the cell number change was -10.3%. Besides, under setting [1], the AC50 was 25.9 µM [rising, single point].

As to `COc1ccc(NC(=O)/C=C/c2cccc(C(F)(F)F)c2)cn1`, the cell number change was found to be 17.5%.

For the molecule `CC(=O)c1ccc(N2CCN(C(=O)c3noc4c3CSc3ccccc3-4)CC2)cc1`, the cell number change was -3.06%. Also, the AC50 under setting [1] is 10.3 µM [rising, partial curve].

For `NC(=O)COC(=O)C1c2ccccc2Oc2ccccc21`, the cell number change is -24.3%. In addition, under setting [1], the AC50 is 4.11 µM [falling, single point].

Regarding `CCn1cc(C(=O)OCC(=O)N2C(C)CCCC2C)c(=O)c2ccc(C)nc21` (stereo not given), the AC50 was 0.184 µM [rising, full curve, poor fit] under setting [2] and 0.116 µM [rising, full curve, poor fit] under setting [1].

With `CN(CC(=O)NC(=O)NC1CCCCC1)CC(=O)Nc1ccc(OC(F)(F)F)cc1`, the cell number change is -1.76%. Also, the AC50 under setting [2] was 4.11 µM [falling, single point].

`O=C(CC(O)(c1ccccc1)C(F)(F)F)c1cccs1` (stereo not given): the AC50 runs as follows: under setting [2], 6.51 µM [falling, single point]; under setting [1], 6.51 µM [falling, single point].

On to `O=C(c1ccc(Cl)cc1)N1CCC(C(=O)N2CCN(c3ncccn3)CC2)CC1`, for which the cell number change was -8.6%.

As to `CC(=O)C1(C)OC(N)=C(C#N)C(c2ccccc2)C1(C#N)C#N` (stereo not given), the cell number change stood at 121%. Further, under setting [2], the concentration at half-maximal activity (AC50) was 14.6 µM [rising, partial curve]. Further, the AC50 under setting [1] is 1.64 µM [rising, partial curve].

Take `CC(/C=C/c1ccc(N(C)C)cc1)=N\N=C(/N)SC1CC(=O)N(c2ccc(C(=O)O)cc2)C1=O` (stereo not given): the cell number change was determined as 9.99%. Moreover, the AC50 under setting [1] was 0.00461 µM [rising, full curve, poor fit].

For the molecule `CSc1ncc(Cl)c(C(=O)Nc2ccccc2Br)n1`, the cell number change was 33.1%. For the same molecule, the half-maximal activity concentration (AC50) under setting [2] is 29.1 µM [rising, single point].

As to `Nc1cc2ccncc2c2ccccc12`, the cell number change is 3.66%. The AC50 under setting [1] was 2.31 µM [rising, single point].

Consider `COc1ccc(-c2nnc(Nc3ccc(CC(N)=O)cc3)c3ccccc23)cc1`, for which the cell number change is -13.8%. For the same molecule, the AC50 under setting [1] was 23.1 µM [falling, partial curve, poor fit].

As to `Cc1ccc(NC(=O)Cc2nnc(SCC(=O)Nc3nncs3)n2C)cc1`, the cell number change turned out to be 24.8%.

On to `COc1cccc(C(=O)COc2ccccc2-c2ccccc2)c1`, for which the cell number change is 15%. Moreover, the half-maximal activity concentration (AC50) under setting [1] is 8.2 µM [rising, partial curve, poor fit].

Regarding `Cc1nn(-c2ccccc2)c2c1C(O)CC(C)(C)C2` (stereo not given), the cell number change was -13.5%. Besides, under setting [1], the AC50 is 20.6 µM [rising, single point].

In the case of `CC(c1ccccc1)C1C(C#N)=C(N)SC(N)=C1C#N` (stereo not given), the cell number change was -21.4%. Further, under setting [1], the AC50 is 18.4 µM [rising, single point].

In the case of `CCOC(=O)C(=NC1CCCCC1)NNc1cccc(C(F)(F)F)c1`, the cell number change was -22.1%.

In the case of `Clc1cnc(N/N=C/c2ccco2)c(Cl)c1`, the cell number change was 83.3%. In addition, under setting [2], the AC50 is 6.51 µM [falling, single point]. Further, the AC50 under setting [1] is 4.61 µM [rising, full curve, poor fit].

Turning to `Cc1noc(C)c1COc1ccc(C(=O)N2CC(C)CC(C)C2)cc1` (stereo not given), the cell number change is -3.76%. Under setting [1], the AC50 is 0.00411 µM [rising, full curve, poor fit].

Consider `COC(=O)c1cccc(C23CC4(C2)[C@H](CN(Cc2ccc(C(F)(F)F)cc2)[C@@H]4c2ccccc2)C3c2ccc(C(F)(F)F)cc2)c1` (stereo not given in full), for which the cell number change amounted to 36.7%. For the same molecule, the AC50 under setting [2] is 29.1 µM [rising, single point]. Besides, the concentration at half-maximal activity (AC50) under setting [1] is 8.2 µM [rising, partial curve, poor fit].

`O=C(NCc1ccc(F)cc1)c1ccc(S(=O)(=O)Nc2cccc(C(F)(F)F)c2)cc1`: the cell number change is -30%. The AC50 under setting [1] was 0.0651 µM [falling, full curve, poor fit].

For `CC(C)(C)c1ccc(OCC(=O)Nc2ccc3c4c(cccc24)C(=O)NC3=O)cc1`, the cell number change was -84.1%. Besides, the AC50 under setting [2] was 20.6 µM [falling, single point].

`Cc1ccc(S(=O)(=O)NC(CC(N)=O)C(=O)O)cc1` (stereo not given): the cell number change was -21.9%. In addition, the AC50 under setting [2] is 0.0058 µM [falling, full curve, poor fit]. The concentration at half-maximal activity (AC50) under setting [1] is 5.8 µM [falling, full curve].

Consider `CN(C)C1C(=O)c2ccccc2C1=O`, for which the cell number change amounted to 30.5%. Moreover, the AC50 under setting [2] is 29.1 µM [rising, single point].

Consider `Cc1ccc(C)c(NC(=O)CCC(=O)NNC(=S)Nc2ccccc2)c1`, for which the cell number change amounted to 38.4%. For the same molecule, under setting [2], the AC50 was 14.6 µM [rising, partial curve].

Consider `Cc1cccc2cc(C(c3nnnn3C3CCCC3)N3CCOCC3)c(=O)[nH]c12` (stereo not given), for which the cell number change was 78.9%. The AC50 under setting [2] was 3.66 µM [rising, partial curve]. Moreover, the AC50 under setting [1] is 7.31 µM [rising, partial curve].

For orientation: AC50 means the midpoint of the concentration-response curve, whichever way the signal moves.
